Assay results published in article PMC11271578.
Results are given in words; binding and its absence hold for the method and conditions named. Binding seen in cells or lysates may run through a third protein. A yes stands for co-enrichment or nearness to the bait. Other partners may have been found.

Protein sequences, listed by entry. Tags and fused reporters are not part of them.
UniProt Q8NFA0: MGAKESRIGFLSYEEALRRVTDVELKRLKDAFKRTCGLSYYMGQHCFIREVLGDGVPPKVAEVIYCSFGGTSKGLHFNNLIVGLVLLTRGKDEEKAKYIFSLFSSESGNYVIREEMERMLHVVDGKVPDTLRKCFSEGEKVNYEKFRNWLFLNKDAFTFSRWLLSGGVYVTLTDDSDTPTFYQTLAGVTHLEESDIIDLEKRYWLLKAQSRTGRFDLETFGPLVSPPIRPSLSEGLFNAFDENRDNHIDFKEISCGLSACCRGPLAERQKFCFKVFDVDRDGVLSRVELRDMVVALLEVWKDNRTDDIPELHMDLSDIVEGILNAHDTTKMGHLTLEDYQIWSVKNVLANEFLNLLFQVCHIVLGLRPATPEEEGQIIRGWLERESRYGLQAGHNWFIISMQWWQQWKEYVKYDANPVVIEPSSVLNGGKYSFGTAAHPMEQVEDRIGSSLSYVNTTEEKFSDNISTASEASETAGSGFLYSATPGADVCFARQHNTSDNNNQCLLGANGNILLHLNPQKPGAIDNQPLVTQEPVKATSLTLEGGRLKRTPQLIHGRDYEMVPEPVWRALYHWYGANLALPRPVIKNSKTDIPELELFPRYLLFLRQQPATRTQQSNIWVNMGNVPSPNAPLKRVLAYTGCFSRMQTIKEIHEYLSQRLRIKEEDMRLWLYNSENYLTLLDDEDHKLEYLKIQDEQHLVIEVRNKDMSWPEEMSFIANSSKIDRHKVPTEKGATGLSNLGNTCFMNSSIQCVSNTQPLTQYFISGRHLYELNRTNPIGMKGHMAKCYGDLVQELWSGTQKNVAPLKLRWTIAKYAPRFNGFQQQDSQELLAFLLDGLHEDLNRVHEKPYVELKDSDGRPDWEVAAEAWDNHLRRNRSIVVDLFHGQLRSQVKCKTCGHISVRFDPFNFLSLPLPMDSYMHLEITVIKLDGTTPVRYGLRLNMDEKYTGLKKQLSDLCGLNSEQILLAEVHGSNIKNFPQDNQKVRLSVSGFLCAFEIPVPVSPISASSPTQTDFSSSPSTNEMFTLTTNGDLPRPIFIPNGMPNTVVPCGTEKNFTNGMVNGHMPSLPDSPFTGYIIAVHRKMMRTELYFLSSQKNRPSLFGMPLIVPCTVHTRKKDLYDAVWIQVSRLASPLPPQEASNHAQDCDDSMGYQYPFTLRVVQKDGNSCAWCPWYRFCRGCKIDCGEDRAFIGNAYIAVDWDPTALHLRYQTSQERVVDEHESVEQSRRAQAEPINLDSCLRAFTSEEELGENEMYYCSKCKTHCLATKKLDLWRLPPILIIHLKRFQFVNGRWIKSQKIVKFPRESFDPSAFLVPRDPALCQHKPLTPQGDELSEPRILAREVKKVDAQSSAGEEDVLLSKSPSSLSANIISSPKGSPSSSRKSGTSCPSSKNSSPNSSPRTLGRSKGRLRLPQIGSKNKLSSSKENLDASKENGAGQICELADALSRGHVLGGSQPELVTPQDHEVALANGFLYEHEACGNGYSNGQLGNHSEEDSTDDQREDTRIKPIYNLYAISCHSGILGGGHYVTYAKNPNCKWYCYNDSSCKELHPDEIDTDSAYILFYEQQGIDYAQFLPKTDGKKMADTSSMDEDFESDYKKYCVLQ
UniProt O95817: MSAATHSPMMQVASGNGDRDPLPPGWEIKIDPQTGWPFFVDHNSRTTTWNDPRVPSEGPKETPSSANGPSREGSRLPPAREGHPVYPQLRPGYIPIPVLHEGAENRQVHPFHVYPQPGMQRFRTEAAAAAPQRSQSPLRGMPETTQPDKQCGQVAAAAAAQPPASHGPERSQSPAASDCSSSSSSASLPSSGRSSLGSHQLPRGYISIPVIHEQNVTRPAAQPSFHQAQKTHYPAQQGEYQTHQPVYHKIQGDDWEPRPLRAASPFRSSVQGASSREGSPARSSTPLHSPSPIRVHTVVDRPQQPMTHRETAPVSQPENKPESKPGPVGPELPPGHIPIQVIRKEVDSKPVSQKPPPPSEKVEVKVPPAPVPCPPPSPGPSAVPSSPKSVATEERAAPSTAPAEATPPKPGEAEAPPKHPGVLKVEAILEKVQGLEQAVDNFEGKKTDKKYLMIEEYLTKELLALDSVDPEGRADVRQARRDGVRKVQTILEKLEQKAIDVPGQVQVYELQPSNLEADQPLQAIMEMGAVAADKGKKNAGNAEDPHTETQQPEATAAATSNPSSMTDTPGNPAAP

Target: Myc-tagged USP32 (ubiquitin-specific peptidase 32) (human) (UniProt Q8NFA0)
Assay: affinity purification with mass spectrometry; H1299 cells transfected with Myc vector or Myc-USP32 for 48 h; USP32-binding proteins immunoprecipitated with anti-Myc antibody, separated on a gel, Coomassie stained, a framed band analysed by mass spectrometry

binding: binds
Substance: Bcl2-associated athanogene 3 (BAG3), endogenous (from UniProt O95817 1-575)
